Assay results published in PubChem BioAssay AID2685 (National Center for Advancing Translational Sciences (NCATS), 2010).
This is one part of the list. Shown are side measurements of this screen, not its main read-out; they come without a call. Most of these compounds were active or inconclusive in the main read-out, so they are no random draw. The note in brackets gives the kind of curve behind each potency; many fits are weak.

Assay: qHTS Assay for Lipid Storage Modulators in Drosophila S3 Cells;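 for cell number change: cells counted by Cell Tracker Red CMTPX staining in the red channel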
Settings: BODIPY lipid droplet fluorescence, 18-24 h; for cell number change: measured here: cell count max response, cells fed with added oleic acid
Outline: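 Drosophila S3 cells loaded with oleic acid (400 uM, as added) and compounds at several concentrations; lipid droplets imaged by 488-nm laser-scanning cytometry, 500–530 nm intensity and object ratio to cell channel. Percent activity normalized to 20 uM Triacsin C.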

[1] = measured here: lipid fluorescence (Fed channel) AC50, cells fed with added oleic acid
[2] = measured here: cell number channel AC50, cells fed with added oleic acid

SMILES	cell number change [%]	AC50 [1]	AC50 [2]
O=C(CS(=O)CC(=O)N(c1cccc(F)c1)C(C(=O)NC1CCCCC1)c1ccco1)Nc1ccc(F)cc1 (stereo not given)	25.4	13 µM [rising, partial curve, poor fit]	–
CCC(c1nnnn1C(C)(C)CC)N1CCN(c2ccccc2F)CC1 (stereo not given)	18.3	–	4.61 µM [falling, single point]
O=C(Cn1c(C(=O)NCc2ccco2)cc2sccc21)c1ccccc1	-85	1.84 µM [falling, full curve]	5.17 µM [falling, partial curve]
O=c1[nH]c(Cn2nnc(-c3ccccc3)n2)nc2scc(-c3ccccc3)c12	-13.2	–	–
Cc1cnc(NC(=O)CSc2nnc(Cc3ccccc3)o2)s1	51.3	–	20.6 µM [rising, single point]
NC(=O)c1ccsc1NC(=O)COC(=O)CCOc1ccccc1	-61.4	10.3 µM [falling, partial curve]	13 µM [falling, partial curve]
Brc1ccc2oc3c(N4CCOCC4)ncnc3c2c1	-8.3	–	–
CCc1cccc(CC)c1NC(=O)c1cc(CN2C(=O)c3ccccc3C2=O)ccc1OC	6.2	0.0058 µM [rising, full curve, poor fit]	–
CCOC(=O)[C@H]1[C@H]2COc3ccc(OC)cc3[C@@H]2N2C(=O)CN(Cc3ccc(F)cc3)C(=O)[C@@]12C	-5.78	0.651 µM [falling, single point]	–
COc1ccc(-c2n[nH]c(=S)n2-c2ccc(C)cc2C)cc1	-0.365	–	–
Cc1cc(=S)cc(C)n1CCCn1ccnc1	-11.1	–	–
COc1ccc(-c2cc(C(=O)N3CCCCCC3)c3cc(C)ccc3n2)cc1	-19.6	20.6 µM [falling, partial curve]	–
Cc1ccc(S(=O)(=O)N2CCOCC2)cc1C(=O)OCC(=O)Nc1ccc2[nH]c(=O)[nH]c2c1	0.5	–	–
O=C(CNC(=O)c1ccc(Cl)cc1Cl)NCCCn1ccnc1	64.4	23.1 µM [rising, single point]	29.1 µM [rising, single point]
N#Cc1ccsc1NC(=O)C1=COCCO1	5.07	3.66 µM [rising, single point]	3.66 µM [rising, single point]
Cc1ccc2c(c1)C1CN(C)CCC1N2S(=O)(=O)c1cccc(F)c1 (stereo not given)	–	18.4 µM [falling, single point]	–
CCCCS(=O)CC(CS(=O)CCCC)OC(=O)c1ccc(C)cc1 (stereo not given)	10.5	1.84 µM [falling, partial curve]	–
COC(=O)Cc1c(O)ccn(Cc2cccc3ccccc23)c1=O	-82.9	5.8 µM [falling, partial curve]	4.61 µM [falling, partial curve]
Cc1cc(NC(=O)CSc2nnc(CNC(=O)c3ccc(C(C)(C)C)cc3)o2)no1	-34.7	1.16 µM [falling, partial curve, poor fit]	29.1 µM [falling, single point]
Cc1cc(C)nc(-n2nc(C)cc2NC(=O)c2cccc(S(=O)(=O)N3CCOCC3)c2)n1	16.4	0.291 µM [rising, full curve, poor fit]	–

SMILES	cell number change [%]	AC50 [1]	AC50 [2]
COC(=O)CSc1nc(NCC(C)C)nc(N2CCOCC2)n1	14.2	29.1 µM [rising, single point]	–
C=CCN1C(=O)/C(=C/c2ccc(OCC(=O)O)cc2)S/C1=N/c1nccs1	56.4	6.51 µM [rising, partial curve, poor fit]	3.26 µM [rising, full curve]
CCC(=O)NNC(=O)CCC(=O)Nc1ccccc1	5.93	–	–
COc1cc(OC)c(OC)cc1CN1CCN(Cc2cccn2C)CC1	-31.7	0.206 µM [falling, full curve, poor fit]	3.66 µM [falling, full curve]
COc1ccc(N2CCN(c3ccc(NC(=O)NN)cc3)CC2)cc1	-8.21	29.1 µM [rising, single point]	–
CC(=O)c1cccc(NC(=O)C(C)OC(=O)c2cc(C)oc2C)c1 (stereo not given)	56.2	–	16.4 µM [rising, partial curve]
Cc1ccc(NC(=O)CN2C(=O)NC3(CCCc4ccccc43)C2=O)c(C)c1 (stereo not given)	–	0.517 µM [rising, partial curve, poor fit]	0.082 µM [rising, full curve, poor fit]
CC(C)c1ccc(S(=O)(=O)N2CCC(C(=O)N3CCC3)CC2)cc1	27.6	–	–
COC(=O)CSc1nsc(SCC(=O)OC)n1	-11.3	32.6 µM [falling, single point]	–
Cc1cc(C)n2nc(CCCO)nc2n1	49.4	13 µM [rising, partial curve]	11.6 µM [rising, partial curve, poor fit]
O=C(Nc1ccc(-c2cn3ccccc3n2)cc1)c1cccs1	-20.8	–	1.84 µM [rising, single point]
CC1CCCC(NC(=O)c2ccc3c(c2)NC(=O)CS3)C1C (stereo not given)	18.5	18.4 µM [falling, partial curve, poor fit]	–
Cc1c(NC(=O)C2CCCN2S(=O)(=O)c2cccc3nsnc23)cccc1C(=O)O (stereo not given)	–	1.16 µM [rising, single point]	1.16 µM [rising, single point]
Cc1csc(SCC(=O)N(C)CC(=O)Nc2ccccc2Cl)n1	17.8	13 µM [rising, single point]	–
CC1COc2c(N3CCN(C)CC3)c(F)cc3c(=O)c(C(=O)O)cn1c23 (stereo not given)	-0.867	1.16 µM [falling, full curve]	1.16 µM [falling, full curve]
CCN1C(=O)c2ccccc2Sc2ccc(C(=O)NCCCN(CC(C)C)CC(C)C)cc21	16.1	2.31 µM [falling, single point]	–
COc1ccc(COCC(O)CN(Cc2ccccc2)C(C)C)cc1OC (stereo not given)	-19.9	–	–
O=c1c2ccccc2nc(SCCN2CCOCC2)n1CCc1ccccc1	28.6	0.00461 µM [rising, full curve, poor fit]	–
O=S(=O)(Nc1cccc(-n2cnnn2)c1)c1ccc(F)cc1	18.5	–	2.59 µM [rising, partial curve]
CCC1CCCCN1C(=O)CSC1=NN2CCCC(=O)N=C2S1 (stereo not given)	17.3	2.91 µM [rising, full curve, poor fit]	–

Compounds above that contain a Cl atom:
SMILES	cell number change [%]	AC50 [1]	AC50 [2]
O=C(CNC(=O)c1ccc(Cl)cc1Cl)NCCCn1ccnc1	64.4	23.1 µM [rising, single point]	29.1 µM [rising, single point]
Cc1csc(SCC(=O)N(C)CC(=O)Nc2ccccc2Cl)n1	17.8	13 µM [rising, single point]	–

Continued.

SMILES	cell number change [%]	AC50 [1]	AC50 [2]
Cc1ccc(/C(N)=N/OC(=O)Oc2ccccc2)cc1	-21.6	0.731 µM [falling, full curve, poor fit]	0.00651 µM [falling, full curve, poor fit]
Cc1ccc(-c2cc(N)n(-c3ccc(F)cc3)n2)cc1	25.2	–	–
CC1(C)CC(NS(=O)(=O)c2ccc(S(=O)(=O)N3CCOCC3)cc2)CCO1 (stereo not given)	0.612	0.0517 µM [falling, full curve, poor fit]	–
CN(C)C(=S)SCC(=O)NCc1ccc(F)cc1	16.1	–	2.31 µM [falling, partial curve]
C(=N\N=C\c1cccnc1)/c1cccnc1	47.4	10.3 µM [rising, single point]	2.91 µM [rising, full curve]
Cc1c(C(=O)NCC2CCCO2)oc2ccccc12 (stereo not given)	-40.5	29.1 µM [falling, single point]	18.4 µM [falling, partial curve, poor fit]
Cc1ccc(C(=O)N/C(=C\c2cccs2)C(=O)NC2CCCCC2)cc1	66.1	–	29.1 µM [rising, single point]
Cc1nc(C)n(CC(O)COc2ccc3ccccc3c2)n1 (stereo not given)	-3.48	1.16 µM [rising, single point]	–
CCCS(=O)(=O)N1CCCC(C(=O)N2CCN(c3ccccc3)CC2)C1 (stereo not given)	-20.7	–	–
CC1(C)CC(N2CCN(Cc3ccccc3)CC2)=CC(=[N+]2CCCCC2)C1	-20.4	13 µM [falling, partial curve]	–
c1ccc(-c2ccc(OCCN3CCOCC3)cc2)cc1	21.3	29.1 µM [rising, single point]	–
O=S(=O)(Nc1nc2ccccc2nc1Nc1ccc2c(c1)OCCO2)c1cccs1	5.7	–	–
CCN1C(=O)C2C(C1=O)N1C(c3cccs3)C3C(=O)N(CC)C(=O)C3N1C2c1cccs1 (stereo not given)	24.4	–	–
CC(C)n1nnc2c(=O)oc3ccccc3c21	126	6.51 µM [rising, partial curve]	8.2 µM [rising, partial curve]
O=C(Nc1ccc2c(c1)OCCO2)c1cnccn1	31.3	29.1 µM [rising, single point]	16.4 µM [rising, single point]
Cc1cccc(C(=O)Nc2nc(C)c(C(=O)Nc3ccc4c(c3)CCC4)s2)c1	-21.3	–	–
CC(C)CCN1CCN=C1N(C)C	-19.9	1.3 µM [falling, full curve]	–
Cc1onc(-c2ccccc2)c1-c1nnc(COC(=O)c2ccc(O)cc2)o1	-35.1	1.84 µM [falling, partial curve, poor fit]	29.1 µM [falling, single point]
CCC(=C(c1ccc(OC)cc1)c1ccc(OC)cc1)c1cn(CC(O)CN(CCO)CCO)c2ccccc12 (stereo not given)	-45.1	–	29.1 µM [falling, single point]

3 entries out of the list, sorted by number of heavy atoms, ascending:
SMILES	cell number change [%]	AC50 [1]	AC50 [2]
C=CCN1C(=O)/C(=C/c2ccc(OCC(=O)O)cc2)S/C1=N/c1nccs1	56.4	6.51 µM [rising, partial curve, poor fit]	3.26 µM [rising, full curve]
Cc1cccc(C(=O)Nc2nc(C)c(C(=O)Nc3ccc4c(c3)CCC4)s2)c1	-21.3	–	–
O=S(=O)(Nc1nc2ccccc2nc1Nc1ccc2c(c1)OCCO2)c1cccs1	5.7	–	–
